# Assay results as given in article PMC5894228.
# Amino acid sequences for entries named in this document (tags omitted). Residues count along the entry.
# UniProt P19838, residues 1-433: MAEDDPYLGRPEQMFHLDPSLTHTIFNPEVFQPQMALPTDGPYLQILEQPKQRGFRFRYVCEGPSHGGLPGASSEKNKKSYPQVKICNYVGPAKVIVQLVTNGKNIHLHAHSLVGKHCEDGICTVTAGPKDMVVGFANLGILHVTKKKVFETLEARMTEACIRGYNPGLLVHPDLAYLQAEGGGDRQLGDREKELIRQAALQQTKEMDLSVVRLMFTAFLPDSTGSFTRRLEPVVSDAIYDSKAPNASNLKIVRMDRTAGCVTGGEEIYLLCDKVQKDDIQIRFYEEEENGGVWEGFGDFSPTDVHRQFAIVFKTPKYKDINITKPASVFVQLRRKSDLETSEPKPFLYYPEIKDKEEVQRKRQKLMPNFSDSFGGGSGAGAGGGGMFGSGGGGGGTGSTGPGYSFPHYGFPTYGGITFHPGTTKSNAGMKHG
# No constants are given. Whether binding was seen depends on the method and setting. In cells and extracts the contact can be indirect. Some binding calls cover weakened binding; strength is not graded here.
# T1: N-terminal fragment (amino acids 1–276) of SP110 (human) (UniProt Q9HB58)
# T1 sequence: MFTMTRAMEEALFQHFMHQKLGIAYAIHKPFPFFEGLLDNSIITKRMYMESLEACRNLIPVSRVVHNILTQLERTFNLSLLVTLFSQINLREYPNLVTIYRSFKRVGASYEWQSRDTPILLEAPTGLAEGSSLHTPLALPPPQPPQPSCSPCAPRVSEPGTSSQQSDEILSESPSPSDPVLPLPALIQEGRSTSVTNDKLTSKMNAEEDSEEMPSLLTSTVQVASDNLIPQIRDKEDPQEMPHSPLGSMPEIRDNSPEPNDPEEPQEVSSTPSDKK
# How the values were obtained:
# [1] = molecular target: T1, N-terminal fragment (amino acids 1–276) of SP110 (human); test: co-IP; HEK293T co-transfected, 2 days; whole-cell lysates (RIPA buffer) incubated with anti-FLAG M2 magnetic beads overnight at 4 °C, washed with PBS, Western blot; control IgG in Fig. 6e
# [2] = molecular target: p50, a subunit of NF-κB (human) (UniProt P19838); test: as above
binding [1],binding [2],Molecule
binds,,"p50, a subunit of NF-κB (from UniProt P19838 1-433)"
,binds,"N-terminal fragment (amino acids 1–276) of SP110 (domain or fragment, UniProt Q9HB58 1-276) MFTMTRAMEEALFQHFMHQKLGIAYAIHKPFPFFEGLLDNSIITKRMYMESLEACRNLIPVSRVVHNILTQLERTFNLSLLVTLFSQINLREYPNLVTIYRSFKRVGASYEWQSRDTPILLEAPTGLAEGSSLHTPLALPPPQPPQPSCSPCAPRVSEPGTSSQQSDEILSESPSPSDPVLPLPALIQEGRSTSVTNDKLTSKMNAEEDSEEMPSLLTSTVQVASDNLIPQIRDKEDPQEMPHSPLGSMPEIRDNSPEPNDPEEPQEVSSTPSDKK"
